The other results are listed elsewhere or left out. The source does not settle which construct or isoform was used.

The target in this experiment is T1, ETS1 (UniProt P14921).
T1 sequence: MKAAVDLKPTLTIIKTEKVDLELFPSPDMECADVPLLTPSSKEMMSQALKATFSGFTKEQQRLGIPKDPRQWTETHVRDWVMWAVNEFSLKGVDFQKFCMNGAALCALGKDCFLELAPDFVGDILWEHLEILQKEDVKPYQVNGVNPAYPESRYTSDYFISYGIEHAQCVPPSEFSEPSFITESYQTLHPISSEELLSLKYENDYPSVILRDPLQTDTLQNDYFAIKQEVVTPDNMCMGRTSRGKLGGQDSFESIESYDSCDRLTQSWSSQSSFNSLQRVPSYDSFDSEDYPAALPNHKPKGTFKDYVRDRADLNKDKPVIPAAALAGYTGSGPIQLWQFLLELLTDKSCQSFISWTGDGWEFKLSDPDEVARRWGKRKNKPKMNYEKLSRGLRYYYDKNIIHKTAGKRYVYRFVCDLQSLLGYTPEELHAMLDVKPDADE
Description: DAPPL (digital affinity profiling via proximity ligation, sequencing). Particulars: 10 mM Tris-HCl pH 7.5, 50 mM NaCl, 1 mM DTT, 4% glycerol, room temperature, 30 min; GST-TFs on glutathione beads, 16-mer random dsDNA library, 0.1% …; high values mean tight binding; double strand, one strand shown; scale: fold enrichment (6-mer frequency, TF over GST control).
TACGCT: the binding signal came to 1.28.
With CCGCCT, the binding signal was 1.51.
With TCTAAA the figure was 1.18.
As to TCTGCC, the binding signal stood at 1.44.
In turn, CCCAAT had a binding signal of 1.32.
Consider TTTTAC, for which the binding signal is 1.44.
With CTGTTA the figure was 1.3.
With CAATAT the figure was 1.21.
With CCTGTT, the binding signal amounted to 1.79.
ATCATA gave a binding signal of 1.09.
With ATCATC the figure was 1.13.
CCAAAA displayed a binding signal of 1.32.
The value for ATGATT was 1.2; that for ACTCTT was 1.28.
The value for CCCTCC was 1.32; that for TGGTTT was 1.54.
For the sequence TACCGC, the binding signal came to 1.11.
The value for GTTTAA was 1.14.
As for TACTTG, the binding signal came out at 1.46.
With AGATCC, the binding signal was determined as 1.08.
On to TGACAC, for which the binding signal stood at 1.15.
The sequence GTTCTA gave a binding signal of 1.19.
Sequence CAATCC had a binding signal of 1.22.
The value for ATCCGA was 1.16; that for ATATGC was 1.15.
With CAGCTT the figure was 1.21; with CTTACG, 1.18.
In turn, TGGCCT came in with a binding signal of 1.6.
TTGATA came in with a binding signal of 1.19.
The sequence TTAGAA came in with a binding signal of 1.18.
TGTAAA gave a binding signal of 1.26.
The value for ACTTAT was 1.32; that for TGGTCT was 1.59.
With TATAGT the figure was 0.994; with CTAATG, 1.22; with CAAGGT, 1.06.
CAATCA: the binding signal was 1.19.
The value for CTGCGA was 1.11; that for AACTGC was 1.36.

The record behind these values is publication PMC7862700.
